No constants are given. Whether binding was seen depends on the method and setting. In cells and extracts the contact can be indirect. Some results given as binding are weak or reduced against the parent protein; the word gives no strength.
Molecular target: CBP (CREB binding protein) (UniProt P45481)
Assay: reciprocal co-immunoprecipitation from pN-Cad/CTF2-transfected L cell extract, Western blot

By UniProt entry, the sequences of proteins in these tests, tags left out. Residues count along the entry.
UniProt P45481, residues 2-2441: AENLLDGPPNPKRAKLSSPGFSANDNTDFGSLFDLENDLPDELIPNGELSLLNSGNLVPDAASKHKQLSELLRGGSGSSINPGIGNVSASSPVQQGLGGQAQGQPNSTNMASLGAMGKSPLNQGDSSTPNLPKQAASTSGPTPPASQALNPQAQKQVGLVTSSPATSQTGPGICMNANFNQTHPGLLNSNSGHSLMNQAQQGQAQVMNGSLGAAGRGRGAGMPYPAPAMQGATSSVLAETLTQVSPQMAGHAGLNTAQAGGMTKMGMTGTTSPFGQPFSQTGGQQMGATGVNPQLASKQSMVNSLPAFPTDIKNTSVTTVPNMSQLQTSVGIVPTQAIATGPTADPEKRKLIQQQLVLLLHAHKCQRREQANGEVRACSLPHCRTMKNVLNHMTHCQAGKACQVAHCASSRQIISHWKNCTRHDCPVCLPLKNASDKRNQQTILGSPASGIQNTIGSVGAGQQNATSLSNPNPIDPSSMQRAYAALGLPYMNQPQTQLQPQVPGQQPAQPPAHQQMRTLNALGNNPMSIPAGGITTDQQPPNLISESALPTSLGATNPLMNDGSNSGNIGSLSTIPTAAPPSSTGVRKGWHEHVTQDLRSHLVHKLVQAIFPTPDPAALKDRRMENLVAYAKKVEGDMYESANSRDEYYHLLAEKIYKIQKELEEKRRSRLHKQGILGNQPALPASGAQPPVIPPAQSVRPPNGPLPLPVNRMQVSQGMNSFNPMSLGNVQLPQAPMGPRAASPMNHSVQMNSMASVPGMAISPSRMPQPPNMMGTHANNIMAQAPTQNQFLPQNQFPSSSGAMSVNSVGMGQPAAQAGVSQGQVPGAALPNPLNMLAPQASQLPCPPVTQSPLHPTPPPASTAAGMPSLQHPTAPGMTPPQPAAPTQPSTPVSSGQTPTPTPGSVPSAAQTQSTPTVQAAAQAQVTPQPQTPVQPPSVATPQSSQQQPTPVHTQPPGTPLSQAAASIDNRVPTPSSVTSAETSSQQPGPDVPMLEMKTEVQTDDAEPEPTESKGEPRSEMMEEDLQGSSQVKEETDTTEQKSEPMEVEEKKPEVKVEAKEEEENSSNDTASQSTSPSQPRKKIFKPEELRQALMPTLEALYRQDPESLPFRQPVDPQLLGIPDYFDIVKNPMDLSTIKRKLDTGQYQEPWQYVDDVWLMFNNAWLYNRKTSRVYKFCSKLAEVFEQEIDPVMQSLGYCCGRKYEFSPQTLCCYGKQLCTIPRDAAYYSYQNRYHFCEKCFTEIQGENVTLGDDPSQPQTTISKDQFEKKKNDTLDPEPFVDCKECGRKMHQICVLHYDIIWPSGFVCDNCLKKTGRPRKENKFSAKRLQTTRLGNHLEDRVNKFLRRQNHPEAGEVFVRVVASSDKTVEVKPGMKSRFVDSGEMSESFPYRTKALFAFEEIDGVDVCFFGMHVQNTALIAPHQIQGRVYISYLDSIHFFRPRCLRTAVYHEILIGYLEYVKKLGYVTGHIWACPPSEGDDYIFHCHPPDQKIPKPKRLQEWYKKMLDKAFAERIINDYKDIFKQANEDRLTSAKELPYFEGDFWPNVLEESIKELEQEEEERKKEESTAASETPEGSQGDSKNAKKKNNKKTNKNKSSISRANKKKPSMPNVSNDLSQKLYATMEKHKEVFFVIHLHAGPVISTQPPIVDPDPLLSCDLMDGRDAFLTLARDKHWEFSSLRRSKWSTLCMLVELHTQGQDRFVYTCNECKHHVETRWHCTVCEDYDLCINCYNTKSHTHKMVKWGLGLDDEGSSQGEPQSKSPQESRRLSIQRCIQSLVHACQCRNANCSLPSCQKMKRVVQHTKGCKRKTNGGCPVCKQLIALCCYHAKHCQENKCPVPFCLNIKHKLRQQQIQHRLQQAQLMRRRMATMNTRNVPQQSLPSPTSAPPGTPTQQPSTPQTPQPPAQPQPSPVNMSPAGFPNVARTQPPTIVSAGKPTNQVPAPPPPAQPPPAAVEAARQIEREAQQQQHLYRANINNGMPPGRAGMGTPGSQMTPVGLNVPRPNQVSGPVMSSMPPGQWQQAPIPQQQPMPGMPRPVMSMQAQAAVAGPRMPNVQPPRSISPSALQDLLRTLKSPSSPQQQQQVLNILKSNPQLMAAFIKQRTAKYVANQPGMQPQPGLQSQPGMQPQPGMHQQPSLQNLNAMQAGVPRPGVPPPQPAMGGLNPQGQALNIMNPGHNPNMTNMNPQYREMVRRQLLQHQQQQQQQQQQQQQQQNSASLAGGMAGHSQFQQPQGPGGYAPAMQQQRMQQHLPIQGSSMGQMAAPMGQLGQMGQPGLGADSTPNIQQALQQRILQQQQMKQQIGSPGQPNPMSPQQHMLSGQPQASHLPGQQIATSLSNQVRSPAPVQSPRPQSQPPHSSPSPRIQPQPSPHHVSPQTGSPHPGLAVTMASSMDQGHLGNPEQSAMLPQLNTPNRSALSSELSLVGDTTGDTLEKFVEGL
UniProt P10288, residues 753-912: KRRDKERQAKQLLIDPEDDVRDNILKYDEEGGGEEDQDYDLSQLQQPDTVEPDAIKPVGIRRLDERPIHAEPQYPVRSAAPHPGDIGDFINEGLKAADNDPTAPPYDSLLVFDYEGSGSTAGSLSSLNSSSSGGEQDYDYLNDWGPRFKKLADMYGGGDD

binding: binds
Substance: N-Cad/CTF2 (chicken cytoplasmic domain of N-cadherin expressed from pN-Cad/CTF2) (from UniProt P10288 753-912)

Source: patent US20050245453A1
